Some entries share one result that the patent states for a list of compounds.
Legend:
S. aureus SpsB [1] = target: T1, S. aureus SpsB (Staphylococcus aureus, UniProt P0A070); assay: SpsB signal peptidase fluorescence polarisation (FP) assay; type: biochemical; settings: developed with 2μM avidin
T1 sequence (P0A070 1-191): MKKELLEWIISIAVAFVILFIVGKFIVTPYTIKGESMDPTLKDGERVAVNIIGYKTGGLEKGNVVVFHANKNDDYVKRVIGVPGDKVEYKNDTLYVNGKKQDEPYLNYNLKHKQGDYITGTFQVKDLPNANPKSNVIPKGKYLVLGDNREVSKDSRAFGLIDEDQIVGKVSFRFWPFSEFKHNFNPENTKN

S. aureus SpsB [2] = target: T1, S. aureus SpsB; assay: SpsB signal peptidase fluorescence quench (FQ) assay; type: biochemical; settings: excitation 485 nm, emission 520-35 nm

Work on “Decanoyl-Leu-Thr-Pro-Lys(Bio-X)-Ala-Lys-Ala-Ala-Ser-Lys-Ile-Asp-Asp-Gly-Lys(Flu)-Asp-OH (LTPKAKAASKIDDGKD) [Example E22]” yielded a signal change (S. aureus SpsB [1]) of no less than 150 mP.

“Decanoyl-Leu-Thr-Pro-Lys(Bio-X)-Ala-Lys-Ala-Ala-Ser-Lys-Lys(Flu)-Asp-Asp-OH (LTPKAKAASKKDD) [Example E20]” gave a signal change (S. aureus SpsB [1]) of no less than 150 mP.

“Decanoyl-Lys(Bio-X)-Thr-Pro-Thr-Ala-Lys-Ala-Ala-Ser-Lys-Ile-Asp-Asp-Gly-Lys(Flu)-Asp-OH (KTPTAKAASKIDDGKD) [Example E21]” was tested, and the signal change (S. aureus SpsB [1]) was no less than 150 mP.

In the case of “Decanoyl-Lys(Flu)-Thr-Pro-Thr-Ala-Lys-Ala-Ala-Ser-Lys-Lys(Bio-X)-Asp-Asp-OH (KTPTAKAASKKDD) [Example E19]”, the signal change (S. aureus SpsB [1]) is reported as no less than 150 mP.

In the case of “Decanoyl-Lys(TAMRA)-Thr-Pro-Thr-Ala-Lys-Ala-Ala-Ser-Lys-Lys(Flu)-Asp-Asp-OH (KTPTAKAASKKDD) [Example E24C]”, the signal change (S. aureus SpsB [2]) is reported as greater than 10 fold.
